Results deposited as PubChem BioAssay AID1508597 (Cure First, 2020)

Aim: 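Survival screen with siRNA in ovarian cancer cells derived from patients, with or without rucaparib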 (primary screen)
System: human ovarian carcinoma lines grown from tumours: OCI-P5x (papillary serous) and OCI-C5x (clear cell)
Knock-down reagent: siRNA pool against human genes, 1.25 pmol siRNA per well
Time to read-out: 72 h or 96 h, depending on the cell culture
Treatment: rucaparib 20 µM (about IC30) or vehicle, present until read-out
Measurement: 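Luminescent ATP-based viability assay read 72 or 96 h after transfection, depending on culture, given as normalised percent viability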
Direction: viability, normalised: higher = more viable cells remaining
Call rule: 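Active when normalised viability falls below 80 percent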
Calls: active = viability under 80%; inactive = viability 80% or more
This is an unselected part of about 2,100 deposited reagents. 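Calls flag viability under 80% in either arm, not effects specific to rucaparib; the reference for percent is not stated.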 Entries without a mark were called inactive. Some reagents were tested in more than one well and are listed for each. The record does not give: the 100% reference.

gene	rucaparib or vehicle	cell line	technical replicate	viability, normalised (%)
WDR82 (WD repeat domain 82)	Rucaparib	OCI-C5x (clear cell)	1	71.9 (active)
WDR82 (WD repeat domain 82)	Rucaparib	OCI-C5x (clear cell)	2	48 (active)
WDR82 (WD repeat domain 82)	Rucaparib	OCI-C5x (clear cell)	3	45.7 (active)
WDR82 (WD repeat domain 82)	Rucaparib	OCI-P5x (serous)	1	76.3 (active)
WDR82 (WD repeat domain 82)	Rucaparib	OCI-P5x (serous)	2	89
WDR82 (WD repeat domain 82)	Rucaparib	OCI-P5x (serous)	3	67.6 (active)
WDR82 (WD repeat domain 82)	Vehicle	OCI-C5x (clear cell)	1	50.5 (active)
WDR82 (WD repeat domain 82)	Vehicle	OCI-C5x (clear cell)	2	68.4 (active)
WDR82 (WD repeat domain 82)	Vehicle	OCI-C5x (clear cell)	3	54.6 (active)
WDR82 (WD repeat domain 82)	Vehicle	OCI-P5x (serous)	1	85.2
WDR82 (WD repeat domain 82)	Vehicle	OCI-P5x (serous)	2	102
WDR82 (WD repeat domain 82)	Vehicle	OCI-P5x (serous)	3	116
RPA2 (replication protein A2)	Rucaparib	OCI-C5x (clear cell)	1	55.8 (active)
RPA2 (replication protein A2)	Rucaparib	OCI-C5x (clear cell)	2	46.4 (active)
RPA2 (replication protein A2)	Rucaparib	OCI-C5x (clear cell)	3	51.1 (active)
RPA2 (replication protein A2)	Rucaparib	OCI-P5x (serous)	1	67.7 (active)
RPA2 (replication protein A2)	Rucaparib	OCI-P5x (serous)	2	74.7 (active)
RPA2 (replication protein A2)	Rucaparib	OCI-P5x (serous)	3	75.1 (active)
RPA2 (replication protein A2)	Vehicle	OCI-C5x (clear cell)	1	41 (active)
RPA2 (replication protein A2)	Vehicle	OCI-C5x (clear cell)	2	36.2 (active)
RPA2 (replication protein A2)	Vehicle	OCI-C5x (clear cell)	3	35.5 (active)
RPA2 (replication protein A2)	Vehicle	OCI-P5x (serous)	1	86.3
RPA2 (replication protein A2)	Vehicle	OCI-P5x (serous)	2	68.4 (active)
RPA2 (replication protein A2)	Vehicle	OCI-P5x (serous)	3	74.8 (active)
BLNK (B cell linker)	Rucaparib	OCI-C5x (clear cell)	1	45.9 (active)
BLNK (B cell linker)	Rucaparib	OCI-C5x (clear cell)	2	44.4 (active)
BLNK (B cell linker)	Rucaparib	OCI-C5x (clear cell)	3	35.6 (active)
BLNK (B cell linker)	Rucaparib	OCI-P5x (serous)	1	37.8 (active)
BLNK (B cell linker)	Rucaparib	OCI-P5x (serous)	2	47 (active)
BLNK (B cell linker)	Rucaparib	OCI-P5x (serous)	3	50.1 (active)
BLNK (B cell linker)	Vehicle	OCI-C5x (clear cell)	1	30.5 (active)
BLNK (B cell linker)	Vehicle	OCI-C5x (clear cell)	2	36.7 (active)
BLNK (B cell linker)	Vehicle	OCI-C5x (clear cell)	3	50.9 (active)
BLNK (B cell linker)	Vehicle	OCI-P5x (serous)	1	32.5 (active)
BLNK (B cell linker)	Vehicle	OCI-P5x (serous)	2	54.8 (active)
BLNK (B cell linker)	Vehicle	OCI-P5x (serous)	3	52.7 (active)

The list goes on, starting with the last 4 of the part before.
gene	rucaparib or vehicle	cell line	technical replicate	viability, normalised (%)
BLNK (B cell linker)	Vehicle	OCI-C5x (clear cell)	3	50.9 (active)
BLNK (B cell linker)	Vehicle	OCI-P5x (serous)	1	32.5 (active)
BLNK (B cell linker)	Vehicle	OCI-P5x (serous)	2	54.8 (active)
BLNK (B cell linker)	Vehicle	OCI-P5x (serous)	3	52.7 (active)
LATS1 (large tumor suppressor kinase 1)	Rucaparib	OCI-C5x (clear cell)	1	45.7 (active)
LATS1 (large tumor suppressor kinase 1)	Rucaparib	OCI-C5x (clear cell)	1	42.5 (active)
LATS1 (large tumor suppressor kinase 1)	Rucaparib	OCI-C5x (clear cell)	2	41.6 (active)
LATS1 (large tumor suppressor kinase 1)	Rucaparib	OCI-C5x (clear cell)	2	49.2 (active)
LATS1 (large tumor suppressor kinase 1)	Rucaparib	OCI-C5x (clear cell)	3	63.5 (active)
LATS1 (large tumor suppressor kinase 1)	Rucaparib	OCI-C5x (clear cell)	3	68.1 (active)
LATS1 (large tumor suppressor kinase 1)	Rucaparib	OCI-P5x (serous)	1	103
LATS1 (large tumor suppressor kinase 1)	Rucaparib	OCI-P5x (serous)	1	71.1 (active)
LATS1 (large tumor suppressor kinase 1)	Rucaparib	OCI-P5x (serous)	2	65.3 (active)
LATS1 (large tumor suppressor kinase 1)	Rucaparib	OCI-P5x (serous)	2	126
LATS1 (large tumor suppressor kinase 1)	Rucaparib	OCI-P5x (serous)	3	100
LATS1 (large tumor suppressor kinase 1)	Rucaparib	OCI-P5x (serous)	3	93.9
LATS1 (large tumor suppressor kinase 1)	Vehicle	OCI-C5x (clear cell)	1	68.7 (active)
LATS1 (large tumor suppressor kinase 1)	Vehicle	OCI-C5x (clear cell)	1	71.2 (active)
LATS1 (large tumor suppressor kinase 1)	Vehicle	OCI-C5x (clear cell)	2	71.4 (active)
LATS1 (large tumor suppressor kinase 1)	Vehicle	OCI-C5x (clear cell)	2	73.8 (active)
LATS1 (large tumor suppressor kinase 1)	Vehicle	OCI-C5x (clear cell)	3	51.6 (active)
LATS1 (large tumor suppressor kinase 1)	Vehicle	OCI-C5x (clear cell)	3	38.6 (active)
LATS1 (large tumor suppressor kinase 1)	Vehicle	OCI-P5x (serous)	1	76.9 (active)
LATS1 (large tumor suppressor kinase 1)	Vehicle	OCI-P5x (serous)	1	57.9 (active)
LATS1 (large tumor suppressor kinase 1)	Vehicle	OCI-P5x (serous)	2	76.8 (active)
LATS1 (large tumor suppressor kinase 1)	Vehicle	OCI-P5x (serous)	2	70.9 (active)
LATS1 (large tumor suppressor kinase 1)	Vehicle	OCI-P5x (serous)	3	61.4 (active)
LATS1 (large tumor suppressor kinase 1)	Vehicle	OCI-P5x (serous)	3	77.3 (active)
DLG4 (discs large MAGUK scaffold protein 4)	Rucaparib	OCI-C5x (clear cell)	1	62.3 (active)
DLG4 (discs large MAGUK scaffold protein 4)	Rucaparib	OCI-C5x (clear cell)	1	45.2 (active)
DLG4 (discs large MAGUK scaffold protein 4)	Rucaparib	OCI-C5x (clear cell)	2	44.2 (active)
DLG4 (discs large MAGUK scaffold protein 4)	Rucaparib	OCI-C5x (clear cell)	2	61.2 (active)
DLG4 (discs large MAGUK scaffold protein 4)	Rucaparib	OCI-C5x (clear cell)	3	55 (active)
DLG4 (discs large MAGUK scaffold protein 4)	Rucaparib	OCI-C5x (clear cell)	3	49.5 (active)
DLG4 (discs large MAGUK scaffold protein 4)	Rucaparib	OCI-P5x (serous)	1	104
DLG4 (discs large MAGUK scaffold protein 4)	Rucaparib	OCI-P5x (serous)	1	52.1 (active)
DLG4 (discs large MAGUK scaffold protein 4)	Rucaparib	OCI-P5x (serous)	2	64.8 (active)
DLG4 (discs large MAGUK scaffold protein 4)	Rucaparib	OCI-P5x (serous)	2	83
DLG4 (discs large MAGUK scaffold protein 4)	Rucaparib	OCI-P5x (serous)	3	66.6 (active)
DLG4 (discs large MAGUK scaffold protein 4)	Rucaparib	OCI-P5x (serous)	3	62.1 (active)
DLG4 (discs large MAGUK scaffold protein 4)	Vehicle	OCI-C5x (clear cell)	1	47.3 (active)
DLG4 (discs large MAGUK scaffold protein 4)	Vehicle	OCI-C5x (clear cell)	1	41.8 (active)
DLG4 (discs large MAGUK scaffold protein 4)	Vehicle	OCI-C5x (clear cell)	2	42.6 (active)
DLG4 (discs large MAGUK scaffold protein 4)	Vehicle	OCI-C5x (clear cell)	2	43.2 (active)
DLG4 (discs large MAGUK scaffold protein 4)	Vehicle	OCI-C5x (clear cell)	3	45 (active)
DLG4 (discs large MAGUK scaffold protein 4)	Vehicle	OCI-C5x (clear cell)	3	51.9 (active)
DLG4 (discs large MAGUK scaffold protein 4)	Vehicle	OCI-P5x (serous)	1	57.2 (active)
DLG4 (discs large MAGUK scaffold protein 4)	Vehicle	OCI-P5x (serous)	1	85.1
DLG4 (discs large MAGUK scaffold protein 4)	Vehicle	OCI-P5x (serous)	2	59.7 (active)
DLG4 (discs large MAGUK scaffold protein 4)	Vehicle	OCI-P5x (serous)	2	76.1 (active)
DLG4 (discs large MAGUK scaffold protein 4)	Vehicle	OCI-P5x (serous)	3	71.6 (active)
DLG4 (discs large MAGUK scaffold protein 4)	Vehicle	OCI-P5x (serous)	3	62.4 (active)
